Data from PMC7188823, “The BRCA2-MEILB2-BRME1 complex governs meiotic recombination and impairs the mitotic BRCA2-RAD51 function in cancer cells” (Nature Communications, 2020).
Results are given in words; binding and its absence hold for the method and conditions named. Binding seen in cells or lysates may run through a third protein. Here binding means that the protein was enriched with, or labelled near, the bait; the list need not be complete.

Target: BRME1 (endogenous, mouse testis) (mouse (endogenous in testis))
Test: affinity purification with mass spectrometry; IP with the BRME1 antibody on Dynabeads protein A from mouse testis extract against control IgG; wash with 400 mM KCl buffer; semi-quantitative mass spectrometry

binding: binds
B1: MEILB2 (endogenous, mouse testis) (protein, UniProt Q9D4G2 1-338)
chain: MAATVGDGSGTEEACRNMESKEEFVKVRKKDLERLTTEVMQIRDFLPRILNGELLESFQKLKMVEKNLERKEQELEQLIMDREHFKARLETAQADSGREKKEKLALRQQLNEAKQQLLQQAEYCTQMGAVTCTLLWGVSSSEEVVKTILGGDKALKFFNITGQTMESFVKSLDGDVKEVDSDENQFVFALAGIVTNVAAIACGREFLVNSSRVLLDTMLQLLGDLKPGQCTKLKVLMLMSLYNVSINSKGLKYITESPGFIPLLWWLLSDPDAEVCLHTLRLIQSVVLEPDVFSKVASELQSSLPLQRILAMSKSRNSHLQSAAQELLEDLRALDCNV
